{"sequences": {"note": "Protein sequences, listed by entry. Tags and fused reporters are not part of them. Residues count along the entry.", "UniProt P01732, 22-235": "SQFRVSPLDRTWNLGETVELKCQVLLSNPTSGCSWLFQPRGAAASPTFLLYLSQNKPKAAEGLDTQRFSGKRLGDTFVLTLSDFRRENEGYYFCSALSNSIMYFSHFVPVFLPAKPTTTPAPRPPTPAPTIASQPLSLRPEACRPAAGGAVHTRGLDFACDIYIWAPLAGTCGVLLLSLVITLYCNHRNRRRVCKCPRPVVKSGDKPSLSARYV"}, "source": "patent US12594350B2", "about": "“CD8-specific capture agents, compositions, and methods of using and making” (Regeneron Pharmaceuticals, Inc., priority 2016, dated 2026)", "target": "His-tagged CD8α human recombinant protein (Homo sapiens, UniProt P01732)", "experiment": "CD8 ELISA (affinity assay) of biligands to determine cooperativity", "assay_type": "binding", "design": "purchased Origene TP760215", "conditions": "biotinylated biligand immobilized on NeutrAvidin plate; CD8α titrated 200 to 0 nM; read-out: EC50 against CD8", "description": "CD8 ELISA (Affinity assay). […] The plate was then blocked with 2 μM Biotin for 15 min.\nThis predicts that an optimized linker to covalently join two PCC macrocycles will have a length near 28.2 Å. In FIG. 17 that prediction is validated by testing polyethylene glycol (PEG) linkers of varying lengths. […] This represents a >30-fold improvement in affinity relative to the individual PCC macrocyclic ligands. Shorter or longer linkers yield biligand affinities that, while improved over either of the PCC macrocycles, are about ˜10-fold below that of the optimal linker.", "note": "At least one structure is not confirmed: it was looked up by name or label, or the drawing left a doubt. Numbered stars: 1 amine (or outer) side, 2 acyl side, 3 side chain; on linkers, the order of the positions; unused ones are H or OH. Bridge positions count the residues as written; N and C are the ends. Square brackets hold non-standard residues; d marks the D form. Triazole bridges read from a SMILES are 1,4-linked. Peptide text beside a SMILES is read from it. * marks the point of attachment. NH(CH2CH2O)5CH2CO = O=C(COCCOCCOCCOCCOCCN[*:1])[*:2]; Biotin = O=C1N[C@H]2[C@H](CS[C@H]2CCCCC(=O)*)N1; Lys(N3) = [N-]=[N+]=NCCCC[C@H](N)C(=O)O; AEEEA = NCCOCCOCCOCC(=O)O; Pra = C#CC[C@H](N)C(=O)O"}
{"compound": "C[C@@H]1NC(=O)[C@@H](NC(=O)COCCOCCOCCOCCOCCNC(=O)[C@@H]2CCCCn3cc(nn3)C[C@H](NC(=O)COCCOCCOCCNC(=O)CCCC[C@@H]3SC[C@@H]4NC(=O)N[C@@H]43)C(=O)N[C@@H](Cc3c[nH]cn3)C(=O)NCC(=O)N[C@@H](CCCNC(=N)N)C(=O)NCC(=O)N[C@@H](Cc3c[nH]cn3)C(=O)N2)Cc2cn(nn2)CCCC[C@@H](C(N)=O)NC(=O)CNC(=O)[C@H](CCCNC(=N)N)NC(=O)[C@H](Cc2ccc(O)cc2)NC(=O)[C@H](CCCCN)NC1=O", "note": "[Cy(HGRGH)-PEG5-Cy(AKYRG)] ({Biotin-AEEEA}-[Pra]HGRGH[Lys(N3)][NH(CH2CH2O)5CH2CO][Pra]AKYRG[Lys(N3)]-NH2; triazole 1-7, 9-15; N-terminus assumed)", "values": [{"measurement": "EC50", "result": 25, "unit": "pM"}]}
